Data reported in patent publication US20090022711A1.
Results are given in words; binding and its absence hold for the method and conditions named. In cells and extracts the contact can be indirect. Some results given as binding are weak or reduced against the parent protein; the word gives no strength.

Biological target: T1, endogenous Bit1 of HeLa cells (human) (UniProt Q9Y3E5)
T1 sequence: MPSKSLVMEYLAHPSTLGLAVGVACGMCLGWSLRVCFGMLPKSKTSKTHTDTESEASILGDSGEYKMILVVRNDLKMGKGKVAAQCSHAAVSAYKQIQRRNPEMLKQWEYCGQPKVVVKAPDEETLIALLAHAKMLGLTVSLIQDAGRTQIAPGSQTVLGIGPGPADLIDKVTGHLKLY
Assay: co-immunoprecipitation of endogenous proteins from HeLa cells kept in suspension: IP anti-Bit1, IB anti-AES [panel C]

B1: endogenous AES of HeLa cells (protein)
chain: MMFPQSRHSGSSHLPQQLKFTTSDSCDRIKDEFQLLQAQYHSLKLECDKLASEKSEMQRHYVMYYEMSYGLNIEMHKQAEIVKRLNGICAQVLPYLSQEHQQQVLGAIERAKQVTAPELNSIIRQQLQAHQLSQLQALALPLTPLPVGLQPPSLPAVSAGTGLLSLSALGSQAHLSKEDKNGHDGDTHQEDDGEKSD
- binding: binds
